Assay results taken from patent publication US20120141504A1 (MAYO FOUNDATION FOR MEDICAL EDUCATION AND RESEARCH, published 2012).
Results are given in words; binding and its absence hold for the method and conditions named. Some binding calls cover weakened binding; strength is not graded here. Where a sequence is shown, tags or fusion partners need not be part of it.

Molecular target: T1, B7-H2 expressed on transfected 293 cells (UniProt O75144)
T1 sequence (looked up): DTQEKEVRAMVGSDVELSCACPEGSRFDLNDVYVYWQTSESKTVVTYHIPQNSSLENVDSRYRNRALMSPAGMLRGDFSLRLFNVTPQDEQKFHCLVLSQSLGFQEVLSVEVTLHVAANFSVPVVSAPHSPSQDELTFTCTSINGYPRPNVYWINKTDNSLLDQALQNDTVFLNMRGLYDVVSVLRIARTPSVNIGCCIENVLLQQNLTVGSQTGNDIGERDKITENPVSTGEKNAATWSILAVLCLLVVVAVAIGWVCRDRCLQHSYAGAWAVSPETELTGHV
Test: flow cytometry on transfected 293 cells

B1: ICOSIg fusion protein (Fc fusion, UniProt Q9Y6W8 21-140, looked up)
chain: EINGSANYEMFIFHNGGVQILCKYPDIVQQFKMQLLKGGQILCDLTKTKGSGNTVSIKSLKFCHSQLSNNSVSFFLYNLDHSHANYYFCNLSIFDPPPFKVTLTGGYLHIYESQLCCQLK
notes: extracellular domain; Described as an analogous fusion protein prepared by a method similar to that for B7-H3Ig (extracellular domain fused to mouse IgG2a Fc); not shown: Fc constant region of mouse IgG2a
In the case of B1, the binding is reported as “binds”.
